# Measured values from PubChem BioAssay AID2685 (National Center for Advancing Translational Sciences (NCATS), 2010).
# The other results are listed elsewhere or left out. These are further read-outs of the screen, such as a control signal, another cell line or another target. No call is given for them. The list favours compounds with an active or inconclusive main result. Potencies come from curve fits of mixed quality, noted in brackets.
# Assay: qHTS Assay for Lipid Storage Modulators in Drosophila S3 Cells;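 on cell number change: cells counted by Cell Tracker Red CMTPX staining in the red channel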
# Details: BODIPY lipid droplet fluorescence, 18-24 h; for cell number change: measured here: cell count max response, cells fed with added oleic acid
# How it was run: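 Drosophila S3 cells got compounds at several concentrations plus oleic acid (400 uM solution). Laser-scanning cytometry with 488 nm excitation read lipid droplets at 500-530 nm and cells at 575-640 nm. Percent activity was relative to 20 uM Triacsin C.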
# [1] = measured here: lipid fluorescence (Fed channel) AC50, cells fed with added oleic acid
# [2] = measured here: cell number channel AC50, cells fed with added oleic acid
SMILES,cell number change [%],AC50 [1],AC50 [2]
CCc1ccc[n+](-c2[nH]c(=O)sc2/C=N/N=C(\[O-])c2cccnc2)c1,-6.6,,
CC(Oc1ccccc1)C(=O)NC1CCCCCCC1 (configuration not stated),9.38,"16.4 µM [falling, single point]",
CSCCC(NC(=O)/C(=C\c1ccc(Cl)cc1)NC(=O)c1ccccc1)C(=O)O (configuration not stated),-15,"0.517 µM [falling, full curve]",
COc1ccccc1COC(=O)N/C=C/c1ccco1,23.4,,"0.58 µM [rising, full curve, poor fit]"
COc1cccc(C2CC(=O)NC(SC)=C2C#N)c1 (configuration not stated),12.2,"3.26 µM [rising, partial curve]",
O=C(COC(=O)c1ccco1)NCC1CCCO1 (configuration not stated),19.8,,
COc1ccc(-c2[nH]ncc2CN2CCC(C(=O)N3CCOCC3)CC2)c(F)c1,11.3,"6.51 µM [rising, partial curve]",
O=c1c2ccc(Cl)cc2[nH]c(=S)n1CCC1=CCCCC1,-35.7,,"4.61 µM [falling, full curve]"
CCCCOc1cccc(C(=O)Nc2ccc(NC(=O)c3ccco3)cc2)c1,19.1,,
O=C(/C=C/c1ccncc1)c1cc(Cl)ccc1O,-65.8,"29.1 µM [falling, single point]","29.1 µM [falling, single point]"
CCOC(=O)N1CCN(C(=S)NC(=O)c2nn(C)cc2Br)CC1,18.3,"0.651 µM [rising, full curve, poor fit]",
Cc1c(C(=O)N2CCCC2)oc2ccc(Br)cc12,7.93,"29.1 µM [rising, single point]",
CN(C)c1ccc(C(CNS(=O)(=O)c2ccc([N+](=O)[O-])cc2)N2CCOCC2)cc1 (configuration not stated),-45,"29.1 µM [falling, single point]","29.1 µM [falling, single point]"
O=C(Nc1cccc(F)c1)Nc1ccc2c(c1)CCC2,-7.07,"0.164 µM [rising, partial curve, poor fit]",
Cc1cc(NC(=O)Nc2ccc(Cl)cc2)n(-c2ccccc2)n1,14.2,,
COc1ccc(/C=C2\SC(=S)N(Cc3cccnc3)C2=O)cc1C,-17.3,"29.1 µM [falling, single point]",
O=C(O)c1ccc(COc2ccccc2/C=C2\NC(=O)N(Cc3ccccc3)C2=O)cc1,36.2,,"2.59 µM [rising, full curve]"
O=C(CSc1nnc(COc2ccccc2)n1Cc1ccco1)Nc1ccc2c(c1)OCCO2,-53.7,"8.2 µM [falling, partial curve]","16.4 µM [falling, partial curve]"
N/C(=N\N=C\c1cccc([N+](=O)[O-])c1)c1nonc1N,4.08,"0.0058 µM [falling, full curve, poor fit]",
CCOc1ccc(C(=O)C(C)OC(=O)CN2C(=O)NC(C)(C)C2=O)cc1 (configuration not stated),-7.48,,

SMILES,cell number change [%],AC50 [1],AC50 [2]
CCOc1cc(C2C3=C(CC(C)(C)CC3=O)OC3=C2C(=O)CC(C)(C)C3)cc([N+](=O)[O-])c1O,-12.3,,
CCn1c(SC(C)C(=O)NC2CCCC2)nc2cc(S(N)(=O)=O)ccc21 (configuration not stated),9.65,"6.51 µM [falling, single point]",
CCOC(=O)C1C(=O)CC(O)(c2ccccc2)CC1c1ccccc1 (configuration not stated),-15.4,,"6.51 µM [falling, single point]"
CC(=O)N1N=C(c2ccncc2)CC1c1ccccc1O (configuration not stated),-6.48,"20.6 µM [rising, single point]",
Cc1ccc(NC(=O)COC(=O)CNC(=O)C2CCCCC2)c(Br)c1,,"0.116 µM [rising, single point]",
CCc1cc(Cn2nc(-c3ccccc3)cc2C(=O)NCc2ccc(C)cc2)on1,-35.8,"20.6 µM [falling, single point]","29.1 µM [falling, single point]"
COc1cccc(/C=N/NC(=O)c2cccc([N+](=O)[O-])c2)c1OS(=O)(=O)c1ccc(C)cc1,,"2.91 µM [rising, single point]",
COc1ccc(S(=O)(=O)N(C)C2CCN(C)CC2)cc1,0.613,"29.1 µM [falling, single point]",
COC(=O)c1c(NC(=O)c2cccs2)sc2c1CCCC2,-24.1,"0.184 µM [falling, full curve, poor fit]","2.31 µM [falling, partial curve, poor fit]"
CN1CCN(C2=Cc3cc(Cl)ccc3Sc3cc(F)ccc32)CC1,-79.5,,"7.31 µM [falling, partial curve]"
CCCCCCCC(=O)Nc1cc(C(=O)NCc2ccc(C)cc2)ccc1N1CCC2(CC1)CC(c1cccc(Br)c1)=NO2,-11.9,"0.651 µM [falling, full curve, poor fit]",
Cc1ccc(F)cc1NC(=O)CCC(=O)c1cccs1,24,"0.00517 µM [rising, full curve, poor fit]",
CC(C)COC(=O)NCCCOC(=O)Nc1ccccc1,-32.6,"1.3 µM [falling, partial curve]","9.2 µM [falling, single point]"
CC1CCc2nn(CC(=O)NCCCN3CCCCC3)cc2C1 (configuration not stated),-9.22,"0.0651 µM [falling, full curve, poor fit]",
Cc1ccc(-n2ncc3c2CCCC3NC(=O)CCc2c(C)noc2C)cc1C (configuration not stated),-22.3,,"0.651 µM [rising, single point]"
O=C(c1cccnc1)c1cccnc1,30,"29.1 µM [rising, single point]","23.1 µM [rising, single point]"
CC(C)N(CC(N)=O)C(=O)c1sc2cc(F)ccc2c1Cl,-33.9,"0.651 µM [falling, full curve]","0.82 µM [falling, full curve, poor fit]"
CCc1cccc2c(C(=O)CCl)c[nH]c12,-38.2,"20.6 µM [falling, partial curve]","16.4 µM [falling, single point]"
COc1ccc(Nc2nc(C)cc(C)c2C#N)cc1,-1.02,"0.184 µM [rising, full curve, poor fit]",
CC(C)CC[n+]1ccccc1/C=C/c1ccc(N(C)C)cc1,-98.6,"4.61 µM [falling, full curve]","5.8 µM [falling, full curve]"

# Three entries from above, sorted by molar mass, rising.
SMILES,cell number change [%],AC50 [1],AC50 [2]
Cc1ccc(F)cc1NC(=O)CCC(=O)c1cccs1,24,"0.00517 µM [rising, full curve, poor fit]",
COc1ccc(S(=O)(=O)N(C)C2CCN(C)CC2)cc1,0.613,"29.1 µM [falling, single point]",
COc1ccc(-c2[nH]ncc2CN2CCC(C(=O)N3CCOCC3)CC2)c(F)c1,11.3,"6.51 µM [rising, partial curve]",

# The list goes on:

SMILES,cell number change [%],AC50 [1],AC50 [2]
CCC(C)(C)NC(=O)C(c1ccc(OC)cc1)N(Cc1ccco1)C(=O)CCC(=O)Nc1cc(C)on1 (configuration not stated),-36.8,"16.4 µM [falling, partial curve]","16.4 µM [falling, partial curve]"
[N-]=[N+]=NC[C@H](c1ccccc1)N1CCN(Cc2ccccc2)CCC1=O,-7.77,"29.1 µM [falling, single point]",
CCOc1ccc(NCc2cccn2-c2nnc(N3CCC(C(=O)NCCCN4CCCCC4C)CC3)s2)cc1 (configuration not stated),17.4,"0.411 µM [rising, full curve, poor fit]",
CC(C)(C)OC(=O)N1CCC(NC(=O)c2nc[nH]c2C(=O)N2CCc3ccccc3C2)CC1,4.52,"0.164 µM [rising, full curve]",
COC(=O)c1ccc(/C=N/Nc2nc(C)c(C)s2)cc1,-17.7,"11.6 µM [falling, single point]",
COc1ccccc1-n1cnnc1SCC(=O)Nc1nc(C)c(Cl)cc1Cl,,"6.51 µM [rising, single point]","3.26 µM [rising, single point]"
Cc1cccc([C@@H]2[C@@H]3C(=O)N(Cc4ccccc4)C(=O)[C@@H]3[C@]3(Cc4ccccc4)C(=O)N(c4cccc(F)c4)C(=O)N23)c1,-8.51,"29.1 µM [rising, single point]",
Cc1cc(C)c(S(=O)(=O)Nc2ccccn2)c(C)c1,0.829,,
O=C(CSc1nncc2ccccc12)Nc1ccc(C(=O)O)cc1,11.5,"29.1 µM [rising, single point]","4.11 µM [rising, single point]"
O=C(Nc1ccc(F)c(Cl)c1)c1ccccc1,43.4,"14.6 µM [rising, partial curve]","18.4 µM [rising, single point]"
COc1ccccc1C(=O)c1cc2ccc(O)cc2oc1=O,,"25.9 µM [rising, partial curve, poor fit]",
O=C(c1ccc(Cl)cc1)N1CCn2c1nc1ccccc12,39.3,"7.31 µM [rising, partial curve, poor fit]","0.103 µM [rising, full curve, poor fit]"
CC1CCc2c(sc3nc(CN4CCOCC4)nc(NS(=O)(=O)c4cccc([N+](=O)[O-])c4)c23)C1 (configuration not stated),,"6.51 µM [rising, partial curve, poor fit]",
O=C(Nc1ccc(C(F)(F)F)cc1)c1cccnc1N1CCOCC1,,"6.51 µM [rising, single point]",
CCN1CCN(C(=S)Nc2sc(C)c(-c3ccccc3)c2C(=O)OC)CC1,-7.37,"4.11 µM [rising, full curve]",
CN1CCN(NC(=S)NC2CCCC2)CC1,-28.9,,
CC1CCc2c(sc(/N=C/c3cccnc3)c2C(N)=O)C1 (configuration not stated),6.67,"1.64 µM [falling, partial curve, poor fit]",
CC1(C)CC(=O)C2=C(C1)OC(N)=C(C#N)C2C#Cc1ccccc1 (configuration not stated),12.6,"2.06 µM [rising, partial curve]",
